Measurements reported in PubChem BioAssay AID190 (DTP/NCI, 2004).
The list is a part of this screen's results and no random one: it is rich in T/C values a quarter to a half above the control, in often repeated tests (any T/C) and in doses without a T/C. Other doses and runs of a compound stand elsewhere. T/C: endpoint of the treated group in % of that of the vehicle group. Some doses have a count of surviving animals in place of a T/C: the source holds a T/C of zero for them, seemingly a mark for toxic or unscored doses. Some survivor counts are full or nearly so, which does not show that the dose was tolerated: the source hardly ever lists a survival T/C far under the control, and the zero likely stands for such cases as well. Survivors were counted at the toxicity check, usually on the fifth day, unless a day is given; later deaths do not show. Schedules are NCI's codes, read here as Q, the interval in days (D) or hours (H), X, the number of doses. Counts like (3×) give the number of equal values in this list. Some doses were run more than once; the results are listed from low to high. For survival time, the PubChem record calls one and a half times the control and up active, and a quarter to a half above the control has no call in these data; cut-offs in other NCI protocols can differ. Some T/C values are followed by the survivors on the day toxicity was checked, most often the fifth; without a count, all were alive then.

Test system: AKR/Lw mice, AKR lymphoma ip, median survival T/C
Assay: NCI In Vivo Anticancer Drug Screen. Data for tumor model Lymphoma AKR (Transplanted) (intraperitoneal) in AKR/Lw mice
Conditions: T/C endpoint: median survival time, higher T/C = longer survival
Experimental: The antitumor activity of compounds was measured in mice bearing transplantable tumors. Survival or tumor size were measured and the results are expressed as the measurement made in the treated group (T) divided by the measurement made in the vehicle treated control group (C). The tumor model used in this assay is Lymphoma AKR (Transplanted) (intraperitoneal) in AKR/Lw mice

[1] = dose: 40.0 mg/kg/injection, schedule: Q01DX009 (ip), vehicle: saline
[2] = dose: 100.0 mg/kg/injection, schedule: Q04DX003 (ip), vehicle: saline
[3] = dose: 200.0 mg/kg/injection, schedule: Q01DX001 (ip), vehicle: saline
[4] = dose: 200.0 mg/kg/injection, schedule: Q04DX003 (ip), vehicle: saline

In the case of `O=c1[nH]cc(F)c(=O)[nH]1`, the T/C (dose: 2.5 mg/kg/injection, schedule: Q03HX032 (ip), vehicle: saline) is reported as 149 % of control, the survivor count (dose: 3.75 mg/kg/injection, schedule: Q01DX009 (ip), vehicle: saline) is reported as 8 of 10 and the T/C (dose: 5.0 mg/kg/injection, schedule: Q01DX005 (ip), vehicle: saline) is reported as 138 % of control. For the same compound, the T/C (dose: 5.0 mg/kg/injection, schedule: Q01DX015 (ip), vehicle: saline) was 144 % of control, the T/C (dose: 5.0 mg/kg/injection, schedule: Q03HX024 (ip), vehicle: saline) was 147 % of control and the T/C (dose: 10.0 mg/kg/injection, schedule: Q01DX001 (ip), vehicle: saline) was 142 % of control. For the same compound, the T/C (dose: 10.0 mg/kg/injection, schedule: Q01DX005 (ip), vehicle: saline) was 132 % of control, the T/C (dose: 10.0 mg/kg/injection, schedule: Q01DX009 (ip), vehicle: saline) was 100, 105, 111, 111 [7 of 10 alive], 127, 136 % of control [9 of 10 alive] and the T/C (dose: 10.0 mg/kg/injection, schedule: Q01DX015 (ip), vehicle: saline) was 129 [9 of 10 alive] and 136 % of control. The T/C (dose: 10.0 mg/kg/injection, schedule: Q03HX024 (ip), vehicle: saline) was 135 % of control, the T/C (dose: 10.0 mg/kg/injection, schedule: Q04DX004 (ip), vehicle: saline) was 125 % of control and the T/C (dose: 12.5 mg/kg/injection, schedule: Q01DX001 (ip), vehicle: saline) was 128 % of control. For the same compound, the T/C (dose: 12.5 mg/kg/injection, schedule: Q04DX003 (ip), vehicle: saline, evaluated on day 30) was 118 % of control, the T/C (dose: 12.5 mg/kg/injection, schedule: Q04DX003 (ip), vehicle: saline, evaluated on day 45) was 103, 105, 107, 113 % of control and the T/C (dose: 12.5 mg/kg/injection, schedule: Q04DX003 (ip), vehicle: saline, evaluated on day 60) was 111 and 158 % of control. The survivor count (dose: 12.5 mg/kg/injection, schedule: Q04DX003 (ip), vehicle: saline) was 4 of 10, the T/C (dose: 18.0 mg/kg/injection, schedule: Q04DX003 (ip), vehicle: saline) was 125 % of control and the T/C (dose: 20.0 mg/kg/injection, schedule: Q01DX009 (ip), vehicle: saline, evaluated on day 45) was 132 % of control. The T/C (dose: 20.0 mg/kg/injection, schedule: Q01DX009 (ip), vehicle: saline, evaluated on day 60) was 113, 125, 133 [8 of 10 alive], 136 [9 of 10 alive], 147 % of control (2×), the T/C (dose: 20.0 mg/kg/injection, schedule: Q01DX015 (ip), vehicle: saline) was 125 % of control and the T/C (dose: 20.0 mg/kg/injection, schedule: Q04DX003 (ip), vehicle: saline, evaluated on day 5) was 125 % of control. For the same compound, the T/C (dose: 20.0 mg/kg/injection, schedule: Q04DX003 (ip), vehicle: saline, evaluated on day 60) was 125 % of control, the T/C (dose: 20.0 mg/kg/injection, schedule: Q04DX004 (ip), vehicle: saline) was 134 % of control and the T/C (dose: 25.0 mg/kg/injection, schedule: Q01DX001 (ip), vehicle: saline) was 142 % of control [9 of 10 alive]. The T/C (dose: 25.0 mg/kg/injection, schedule: Q02DX005 (ip), vehicle: Klucel (hydroxypropylcellulose) (HPC)) was 139 % of control, the T/C (dose: 25.0 mg/kg/injection, schedule: Q04DX003 (ip), vehicle: saline, evaluated on day 30) was 143 and 176 % of control [9 of 10 alive] and the T/C (dose: 25.0 mg/kg/injection, schedule: Q04DX003 (ip), vehicle: saline, evaluated on day 45) was 114, 123, 127, 150 % of control. The T/C (dose: 25.0 mg/kg/injection, schedule: Q04DX003 (ip), vehicle: saline, evaluated on day 60) was 119 (2×), 121, 134 [9 of 10 alive], 135 [7 of 10 alive], 146, 147 [9 of 10 alive], 175 % of control, the survivor count (dose: 30.0 mg/kg/injection, schedule: Q01DX009 (ip), vehicle: saline) was 10 of 10 and the survivor count (dose: 30.0 mg/kg/injection, schedule: Q01DX015 (ip), vehicle: saline) was 10 of 10. For the same compound, the T/C (dose: 37.5 mg/kg/injection, schedule: Q01DX001 (ip), vehicle: saline, evaluated on day 5) was 125 % of control, the T/C (dose: 37.5 mg/kg/injection, schedule: Q01DX001 (ip), vehicle: saline, evaluated on day 60) was 129 % of control and the T/C (dose: 37.5 mg/kg/injection, schedule: Q04DX003 (ip), vehicle: saline) was 135 % of control. The survivor count (dose: 40.0 mg/kg/injection, schedule: Q01DX001 (ip), vehicle: saline) was 10 of 10, the survivor count (dose: 40.0 mg/kg/injection, schedule: Q01DX005 (ip), vehicle: saline) was 10 of 10 and the T/C [1] was 92 % of control. The survivor count [1] was 7 of 10, 8 of 10, 9 of 10, 10 of 10, the survivor count (dose: 40.0 mg/kg/injection, schedule: Q01DX015 (ip), vehicle: saline) was 9 of 10 and the survivor count (dose: 48.0 mg/kg/injection, schedule: Q04DX003 (ip), vehicle: water) was 10 of 10. For the same compound, the T/C (dose: 50.0 mg/kg/injection, schedule: Q01DX001 (ip), vehicle: saline) was 121, 121 [8 of 10 alive], 130, 145 % of control, the survivor count (dose: 50.0 mg/kg/injection, schedule: Q02DX005 (ip), vehicle: Klucel (hydroxypropylcellulose) (HPC)) was 6 of 6 and the T/C (dose: 50.0 mg/kg/injection, schedule: Q04DX003 (ip), vehicle: saline, evaluated on day 30) was 165 % of control. For the same compound, the T/C (dose: 50.0 mg/kg/injection, schedule: Q04DX003 (ip), vehicle: saline, evaluated on day 45) was 163, 171, 177, 197 % of control, the T/C (dose: 50.0 mg/kg/injection, schedule: Q04DX003 (ip), vehicle: saline, evaluated on day 60) was 133, 141 [7 of 10 alive], 141 [9 of 10 alive], 200, 204 % of control and the survivor count (dose: 50.0 mg/kg/injection, schedule: Q04DX003 (ip), vehicle: saline) was 5 of 10 and 10 of 10. For the same compound, the T/C (dose: 60.0 mg/kg/injection, schedule: Q01DX001 (ip), vehicle: saline) was 133 % of control, the T/C (dose: 75.0 mg/kg/injection, schedule: Q01DX001 (ip), vehicle: saline) was 145 % of control and the T/C (dose: 75.0 mg/kg/injection, schedule: Q04DX003 (ip), vehicle: saline) was 145 % of control. For the same compound, the survivor count (dose: 75.0 mg/kg/injection, schedule: Q04DX004 (ip), vehicle: saline) was 10 of 10, the survivor count (dose: 80.0 mg/kg/injection, schedule: Q01DX005 (ip), vehicle: saline) was 9 of 10 and the survivor count (dose: 80.0 mg/kg/injection, schedule: Q01DX015 (ip), vehicle: saline) was 9 of 10. The survivor count (dose: 90.0 mg/kg/injection, schedule: Q04DX008 (ip), vehicle: saline) was 10 of 10, the T/C (dose: 100.0 mg/kg/injection, schedule: Q01DX001 (ip), vehicle: saline) was 114, 134, 138, 150, 164, 168 % of control and the survivor count (dose: 100.0 mg/kg/injection, schedule: Q02DX005 (ip), vehicle: Klucel (hydroxypropylcellulose) (HPC)) was 6 of 6. For the same compound, the T/C [2] was 87, 100 [9 of 10 alive], 111, 165 % of control, the survivor count [2] was 10 of 10 (2×) and the survivor count (dose: 100.0 mg/kg/injection, schedule: Q04DX004 (ip), vehicle: saline) was 9 of 10. The T/C (dose: 150.0 mg/kg/injection, schedule: Q01DX001 (ip), vehicle: saline, evaluated on day 5) was 105 % of control, the T/C (dose: 150.0 mg/kg/injection, schedule: Q01DX001 (ip), vehicle: saline, evaluated on day 60) was 141 [9 of 10 alive], 159, 171, 231 % of control and the survivor count (dose: 150.0 mg/kg/injection, schedule: Q01DX001 (ip), vehicle: saline) was 10 of 10. For the same compound, the survivor count (dose: 150.0 mg/kg/injection, schedule: Q04DX003 (ip), vehicle: saline) was 9 of 10, the T/C [3] was 92 and 156 % of control and the survivor count [3] was 10 of 10. For the same compound, the survivor count (dose: 200.0 mg/kg/injection, schedule: Q02DX005 (ip), vehicle: Klucel (hydroxypropylcellulose) (HPC)) was 6 of 6, the T/C [4] was 91 % of control and the survivor count [4] was 10 of 10. The survivor count (dose: 300.0 mg/kg/injection, schedule: Q01DX001 (ip), vehicle: saline) was 9 of 10, the survivor count (dose: 400.0 mg/kg/injection, schedule: Q01DX001 (ip), vehicle: saline) was 10 of 10 and the survivor count (dose: 400.0 mg/kg/injection, schedule: Q04DX003 (ip), vehicle: saline) was 10 of 10.

With `COc1ccc(-n2c(=S)[nH]c3ccccc3c2=O)cc1` the survivor count (dose: 300.0 mg/kg/injection, schedule: Q04DX003 (ip), vehicle: Klucel (hydroxypropylcellulose) (HPC)) was 10 of 10.
